# Results of single-concentration screens

Results are given as percent effect.
The record does not define 0% and 100%; most values in the screen are far below 50% and negative numbers occur (in some assays of this library far below -100).
Compounds were drawn at random from those tested, without regard to their results.

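Growth of Mycobacterium tuberculosis over 4 days (cholesterol / DPPC medium with tyloxapol); the read-out is not stated. Compounds at 500 µM. Higher reads as more growth inhibition (inferred: compounds with an IC50 in retests scored well above the rest). About 18,000 compounds were tested under these conditions; 5% (about 900) showed 50% or more at least once.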

| Compound | percent effect |
|---|---|
| `NCC(=O)N1CCN(c2ccc(Cl)cc2)CC1` | -3.376 |
| `O=C(CN1CCn2ccnc2C1)NCCc1cccs1` | -1.596 |
| `O=c1c(Br)cncn1CC(F)(F)F` | -13.21 |
| `CCNC(=O)c1cc(N2CCC(O)CC2)ccn1` | 14.16 |
| `OCC1CCN(CCc2ccccc2)C1` (stereo not drawn) | 65.49 |
| `NCCCn1cccnc1=O` | -29.88 |
| `CC(C#N)CNC(=O)OC(C)(C)C` (stereo not drawn) | -7.014 |
| `Cc1cc(N2CCNCC2)ccn1` | 6.799 |
| `Cn1cncc1CCNC(=O)c1ccc(Cl)cn1` | 25.83 |
| `CSCCC(O)C(=O)NCC1(Cn2ccnc2)CC1` (stereo not drawn) | -3.128 |
| `CCCn1cnnc1CN(C)Cc1nnc(C)o1` | -12.82 |
| `CC(C)C(CN)N1CCCC1` (stereo not drawn) | -11.42 |
| `O=C1CCC(O)CN1` (stereo not drawn) | 14.48 |
| `Oc1ccnc(C2CCC2)n1` | -28.53 |
| `Cc1ccc(S(=O)(=O)NCCN)cc1Cl` | 18.27 |
| `Cc1cc(S(=O)(=O)N[C@@H]2CCOC[C@H]2O)n(C)n1` | -13.63 |
| `COCC(C)NC(=O)N(C)Cc1c(C)noc1C` (stereo not drawn) | 3.785 |
| `Cc1cc(CNC(=O)N2CCSCC2)nc(C)n1` | -1.559 |
| `CC1CN(C(=O)Cc2ccsc2)CCO1` (stereo not drawn) | 1.453 |
| `COCCNC(=O)Cc1cc(OC)c(OC)c(OC)c1` | -17.36 |
| `CCN1CC(=O)NC1c1ccc(OC)cc1` (stereo not drawn) | 2.703 |
| `NC1CCN(C(=O)CCn2ccnc2)CC1` | -2.616 |
| `C[C@@H](CO)Nc1ncc(Cl)cc1Br` | 58.35 |
| `Cc1c(C(=O)NCC2CC2)cnn1C` | 7.809 |
| `O=C(CC(F)(F)F)NCc1ccc(F)cc1` | -16.23 |
| `N[C@@H]1C[C@H]1c1c(F)cccc1F` | 14.23 |
| `Cc1nc(-c2cccnc2)sc1C(=O)N1CCCC1` | 1.09 |
| `Cc1ncccc1OCC(=O)N(C)C1CC1` | -10.51 |
| `O=C(Cn1cc(C(F)(F)F)ccc1=O)N1CCCC1` | -34.8 |
| `Cc1nn(C)cc1S(=O)(=O)Nc1ccccn1` | 10.27 |
| `COCCC(=O)N(C)C(C)Cc1ncccc1C` (stereo not drawn) | 1.105 |
| `COCCn1cncc1CNC(=O)C1(C)CCCCO1` (stereo not drawn) | 1.135 |
| `Cc1occc1C(=O)NCC(C)CN1CCOCC1` (stereo not drawn) | 13.97 |
| `O=C(NCc1ccco1)NC1CCN(C2CC2)C1=O` (stereo not drawn) | -8.164 |
| `CNCC(=O)Nc1ccc(F)cc1` | 4.488 |
| `Nc1nnc(CCCNC(=O)c2cnc[nH]2)s1` | -14.17 |
| `CC(N)CCNS(=O)(=O)c1ccccc1` (stereo not drawn) | 8.509 |
| `Cc1nn(CCCN)c(C)c1Br` | 22.35 |
| `O=C(CN1C(=O)CC2(CCCCC2)C1=O)NC1CC1` | 16.5 |
| `COc1ccc(CN2CCCNCC2=O)cc1` | 30.98 |
| `Cc1cc(NC(=O)CN2CCN(C(C)C)CC2)n(C)n1` | -21.66 |
| `O=C(Nc1ccccc1)N1CCCOCC1` | 1.493 |
| `CCc1ccc(S(=O)(=O)NC2(C)CCS(=O)(=O)C2)cc1` (stereo not drawn) | 26.95 |
| `CCn1cc(S(=O)(=O)N[C@@H]2C[C@@H]3OCC[C@@H]32)cn1` | 6.235 |
| `CCc1ncc(CN(C)c2ncccc2S(N)(=O)=O)s1` | 6.627 |
| `CNCCCNC(=O)c1ccc(C)c(C)c1` | 6.273 |
| `CC(NS(C)(=O)=O)c1cccnc1` (stereo not drawn) | 5.875 |
| `CCOc1cccc2c1OCC(C(=O)N(C)C)C2` (stereo not drawn) | 15.49 |
| `COc1ncccc1C(=O)NCCN1CCCC(C)C1` (stereo not drawn) | 5.761 |
| `O=C1CN(C(=O)c2ccccn2)c2ccncc2N1` | 1.209 |
| `Cn1cnnc1C1CCN(CC2CCOC2)CC1` (stereo not drawn) | 2.51 |
| `COc1ccc(NC(=O)C2=CCOCC2)cc1OC` | 7.787 |
| `NCC(O)c1c(F)cccc1F` (stereo not drawn) | -6.739 |
| `CCn1c(CN2CCC(O)CC2)nnc1[C@H]1C[C@H](N)C1` | 9.872 |
| `CC1CN(CCS(=O)(=O)c2ccccc2)CCO1` (stereo not drawn) | 16.39 |
| `CCc1cncc(C)n1` | 7.623 |
| `CCN1CCC(NCc2ccc3c(c2)OCO3)CC1` | -9.241 |
| `CN(C)S(=O)(=O)Nc1ccccn1` | 8.151 |
| `NC1(c2nc(C3CC3)cc(=O)[nH]2)CCCC1` | -7.059 |
| `Cc1ccc(C(=O)NCC(c2ccco2)N(C)C)o1` (stereo not drawn) | 9.188 |
| `O=C(NC1CCNC1=O)c1sc2cccc(F)c2c1Cl` (stereo not drawn) | -15.24 |
| `CC(=O)NCc1ccc(-c2csc(C3CCCO3)n2)o1` (stereo not drawn) | 7.252 |
| `CC(=O)c1cn(C(C)C)nn1` | -15 |
| `NC(=O)CCN1CCCC1c1ccsc1` (stereo not drawn) | -3.908 |
| `N#CCS(=O)(=O)NCc1ccc(F)cc1` | 12.04 |
| `CN1CCN(CC2(CNC(=O)c3ccc[nH]3)CC2)CC1` | 8.762 |
| `CC(C#N)Sc1nnnn1Cc1cccs1` (stereo not drawn) | 17.99 |
| `O=C1CC(c2ccccc2)C(=O)N1` (stereo not drawn) | -11.83 |
| `CCN1CN=C(NS(=O)(=O)c2ccc(C)cc2)NC1` | -18.89 |
| `CC(=O)N1CCC[C@H]1C(=O)NCCc1csc(C)n1` | 52.3 |
| `CSc1ccccc1NC(=O)CCN1CCOCC1` | -6.562 |
| `NCc1nc(-c2ccccn2)no1` | 7.314 |
| `O=C(NC1CCCc2ccccc21)c1ccncc1` (stereo not drawn) | 46.63 |
| `O=C(Nc1cc(C(F)(F)F)ccn1)C1CCOC1` (stereo not drawn) | -6.808 |
| `CC1CN(C)CCN1C(=O)c1cc(-c2ccco2)[nH]n1` (stereo not drawn) | -19.45 |
| `Cc1noc(C)c1S(=O)(=O)N(C)CCc1ccccn1` | 22.38 |
| `CCN(C)C(C)(C)C(=O)Nc1ncccc1O` | -10.81 |
| `COCCN(c1nccc(C(F)(F)F)n1)C(C)C(N)=O` (stereo not drawn) | -7.184 |
| `CN(C)c1ccc(Br)c(S(=O)(=O)NC2CCNC2)c1` (stereo not drawn) | 37.66 |
| `CC(N)C(=O)N1CCN(c2ccc(C(N)=O)cc2)CC1` (stereo not drawn) | 6.253 |
| `CN1CCOC(CNC(=O)c2ccc(N)nc2)C1` (stereo not drawn) | 26.5 |
| `NCCCN1CCNC(=O)C1` | 9.704 |
| `OCC1(NCc2cccc(Cl)c2F)CCOCC1` | -1.211 |
| `COCC1CCCN(CCN)C1` (stereo not drawn) | -6.272 |
| `CC(=O)Nc1cccc(C(C)N)c1` (stereo not drawn) | 12.72 |
| `Cc1nnc(CCNC(=O)CSc2nnc(N)s2)s1` | 2.018 |

The last 7 entries again:

| Compound | percent effect |
|---|---|
| `CC(N)C(=O)N1CCN(c2ccc(C(N)=O)cc2)CC1` (stereo not drawn) | 6.253 |
| `CN1CCOC(CNC(=O)c2ccc(N)nc2)C1` (stereo not drawn) | 26.5 |
| `NCCCN1CCNC(=O)C1` | 9.704 |
| `OCC1(NCc2cccc(Cl)c2F)CCOCC1` | -1.211 |
| `COCC1CCCN(CCN)C1` (stereo not drawn) | -6.272 |
| `CC(=O)Nc1cccc(C(C)N)c1` (stereo not drawn) | 12.72 |
| `Cc1nnc(CCNC(=O)CSc2nnc(N)s2)s1` | 2.018 |

Data taken from ChEMBL document CHEMBL3988442, “University of Dundee, Small-Polar-MMV Screening Library” (2021).